These are yes or no findings as the source states them, for the method shown. Some binding calls cover weakened binding; strength is not graded here. Where a sequence is shown, tags or fusion partners need not be part of it.
Biological target: face-to-face (FtF) histone from Thermococcus kodakarensis (HTkC) (Thermococcus kodakarensis) (UniProt Q5JDW7)
Test: crystal structure; HTkC at 4.0 mg/mL in 50 mM Tris-HCl pH 7.0, 100 mM KCl, 10% glycerol; sitting drop vapor diffusion, reservoir 0.01 M trisodium citrate, 33% (w/v) PEG 6000; space group P2(1)2(1)2(1), 1.84 Å; four monomers in the asymmetric unit; both purified

B1: face-to-face (FtF) histone from Thermococcus kodakarensis (HTkC) (natural protein)
chain: MAEMLVKSKVKEFVKSVDPEMRVSPEFYDALEAEVKALVEKAIKRAQAEGRKTLYARHV
notes: Face-to-face (FtF) histone HTkC of Thermococcus kodakarensis, product of gene TK1040; synthesized gene cloned into pET30b (plasmid pRD503); The purification used heat, heparin and SEC only, so the protein is probably untagged (surmised); Oligonucleotides for cloning are in the Supplementary Information; also called FtF histone HTkC; TK1040; source: E. coli BL21(DE3)pLysS, purified (heating at 70 …)
**Q.** How did the binding turn out when B1 was run?
**A.** binds

Reference: PMC11390915, “Histones and histone variant families in prokaryotes” (Nature Communications, 2024)
